Results on five molecules are retold here after PMC8363623.

Assay [1] deals with T1, Ufd1 (two-hybrid fusion) (S. cerevisiae) (UniProt P53044).
T1 sequence: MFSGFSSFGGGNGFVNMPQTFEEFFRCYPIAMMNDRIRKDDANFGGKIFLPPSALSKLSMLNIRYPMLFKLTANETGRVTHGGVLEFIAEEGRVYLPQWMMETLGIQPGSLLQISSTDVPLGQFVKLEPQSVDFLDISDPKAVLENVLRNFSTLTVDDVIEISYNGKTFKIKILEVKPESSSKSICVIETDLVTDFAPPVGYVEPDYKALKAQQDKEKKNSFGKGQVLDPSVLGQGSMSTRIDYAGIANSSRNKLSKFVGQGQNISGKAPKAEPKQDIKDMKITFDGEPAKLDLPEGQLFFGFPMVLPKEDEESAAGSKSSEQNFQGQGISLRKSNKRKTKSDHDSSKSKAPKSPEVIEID
Put plainly: two-hybrid; Gal4 AD (pGADT7) and BD (pGBKT7) fusions in PJ69a, or Y187 mated with Y2HGold; spotting on -LW and on -LWH, -LWH + 1 mM 3-aminotriazol, -LWHA, 3 days unless indicated.

The target in a further assay is T2, Lrs4^TAP (S. cerevisiae) (UniProt Q04087).
T2 sequence: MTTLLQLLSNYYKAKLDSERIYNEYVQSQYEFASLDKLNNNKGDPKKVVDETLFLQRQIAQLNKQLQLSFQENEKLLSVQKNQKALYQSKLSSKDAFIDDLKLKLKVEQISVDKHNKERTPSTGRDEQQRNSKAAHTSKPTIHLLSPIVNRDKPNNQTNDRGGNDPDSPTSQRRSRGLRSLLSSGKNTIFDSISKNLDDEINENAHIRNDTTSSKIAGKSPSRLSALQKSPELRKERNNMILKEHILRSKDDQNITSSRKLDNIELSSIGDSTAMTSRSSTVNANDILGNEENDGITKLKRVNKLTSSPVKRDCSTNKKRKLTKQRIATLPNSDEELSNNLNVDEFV
Put plainly: co-IP; yeast cell lysates (50 mM Tris pH 7.5, 150 mM NaCl, 10% glycerol, 1 mM EDTA, 0.5% NP-40) on antiHA-sepharose, GFP-Trap or IgG-agarose beads, 1.5 h at 4 °C, immunoblot; cells also with cdc14-3 at 37 °C, phosphatase inhibitors, Net1 depletion, nur1Pmim, SUMO overexpression (WT, FAIA, KRall), Cdc48 mutants, STUbL deletions or I-PpoI rDNA damage. A general note: Immunoblotting shows a protein as a band on a membrane.

The target of assay [2] is T3, Lrs4 (as in the co-immunoprecipitations of the supplementary figures) (S. cerevisiae) (UniProt Q04087).
T3 sequence: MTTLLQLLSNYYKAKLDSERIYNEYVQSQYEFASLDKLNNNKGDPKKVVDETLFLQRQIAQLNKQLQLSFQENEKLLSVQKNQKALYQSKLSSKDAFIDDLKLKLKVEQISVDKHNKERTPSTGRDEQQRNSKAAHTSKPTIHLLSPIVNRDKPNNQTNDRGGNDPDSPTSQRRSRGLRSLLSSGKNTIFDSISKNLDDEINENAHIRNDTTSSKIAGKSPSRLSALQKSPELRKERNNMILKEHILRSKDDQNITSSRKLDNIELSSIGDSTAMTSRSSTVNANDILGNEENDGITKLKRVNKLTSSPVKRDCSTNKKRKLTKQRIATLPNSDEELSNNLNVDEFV
The description is as above.

The next assay addresses T4, Heh1^GFP (S. cerevisiae) (UniProt Q03707).
T4 sequence: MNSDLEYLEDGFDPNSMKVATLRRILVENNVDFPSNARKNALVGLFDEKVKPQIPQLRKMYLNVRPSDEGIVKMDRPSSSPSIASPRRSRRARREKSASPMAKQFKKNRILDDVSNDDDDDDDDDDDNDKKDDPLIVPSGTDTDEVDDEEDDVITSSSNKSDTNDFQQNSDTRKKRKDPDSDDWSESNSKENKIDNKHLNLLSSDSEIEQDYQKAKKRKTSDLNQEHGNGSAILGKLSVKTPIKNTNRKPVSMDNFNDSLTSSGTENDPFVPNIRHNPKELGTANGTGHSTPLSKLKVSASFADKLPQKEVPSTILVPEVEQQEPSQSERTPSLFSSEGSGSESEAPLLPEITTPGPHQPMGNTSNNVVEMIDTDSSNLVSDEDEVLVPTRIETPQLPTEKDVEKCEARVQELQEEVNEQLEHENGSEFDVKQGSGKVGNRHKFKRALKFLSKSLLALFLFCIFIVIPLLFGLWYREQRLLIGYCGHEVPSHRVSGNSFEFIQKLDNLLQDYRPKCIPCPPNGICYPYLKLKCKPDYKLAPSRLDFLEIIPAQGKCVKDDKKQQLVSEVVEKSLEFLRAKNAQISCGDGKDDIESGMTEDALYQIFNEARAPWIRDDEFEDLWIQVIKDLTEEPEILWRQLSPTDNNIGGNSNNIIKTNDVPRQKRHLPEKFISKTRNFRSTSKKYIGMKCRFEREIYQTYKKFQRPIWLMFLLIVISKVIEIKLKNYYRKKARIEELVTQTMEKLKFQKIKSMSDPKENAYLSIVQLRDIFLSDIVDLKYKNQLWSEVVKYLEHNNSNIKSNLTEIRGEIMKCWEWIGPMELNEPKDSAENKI
Described as above.

Assay [3] has as its target T5, Heh1 (as in the co-immunoprecipitations of the supplementary figures) (S. cerevisiae) (UniProt Q03707).
T5 sequence: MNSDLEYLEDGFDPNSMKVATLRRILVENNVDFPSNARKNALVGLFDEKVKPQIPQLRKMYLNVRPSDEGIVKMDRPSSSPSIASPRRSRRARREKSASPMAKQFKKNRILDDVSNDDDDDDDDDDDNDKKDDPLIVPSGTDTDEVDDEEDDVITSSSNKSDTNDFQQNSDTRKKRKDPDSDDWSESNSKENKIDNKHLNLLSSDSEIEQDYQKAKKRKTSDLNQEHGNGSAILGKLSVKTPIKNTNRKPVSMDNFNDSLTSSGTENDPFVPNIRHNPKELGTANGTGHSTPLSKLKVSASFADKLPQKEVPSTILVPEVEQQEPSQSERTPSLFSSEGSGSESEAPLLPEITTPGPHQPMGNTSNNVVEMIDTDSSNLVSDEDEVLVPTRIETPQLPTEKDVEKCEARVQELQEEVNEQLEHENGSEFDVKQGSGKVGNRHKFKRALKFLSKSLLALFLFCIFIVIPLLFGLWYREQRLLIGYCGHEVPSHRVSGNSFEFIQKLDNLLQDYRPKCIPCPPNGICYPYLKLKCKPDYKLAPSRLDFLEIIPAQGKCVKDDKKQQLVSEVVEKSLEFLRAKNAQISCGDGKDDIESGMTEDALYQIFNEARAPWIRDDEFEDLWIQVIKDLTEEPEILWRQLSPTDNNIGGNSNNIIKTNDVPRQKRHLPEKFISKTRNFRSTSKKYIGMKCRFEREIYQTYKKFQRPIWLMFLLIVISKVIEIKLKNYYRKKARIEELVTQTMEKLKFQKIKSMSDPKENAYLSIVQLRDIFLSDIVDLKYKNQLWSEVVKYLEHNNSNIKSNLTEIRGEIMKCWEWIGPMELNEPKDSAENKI
The assay is described as above.

No constants are given. Whether binding was seen depends on the method and setting. For some assays here: Binding seen in cells or lysates may run through a third protein. Some results given as binding are weak or reduced against the parent protein; the word gives no strength. For some assays here: Tags and fused reporters may be left off the sequences shown.

B1: Lrs4 (two-hybrid fusion) (protein, UniProt Q04087 1-347)
chain: MTTLLQLLSNYYKAKLDSERIYNEYVQSQYEFASLDKLNNNKGDPKKVVDETLFLQRQIAQLNKQLQLSFQENEKLLSVQKNQKALYQSKLSSKDAFIDDLKLKLKVEQISVDKHNKERTPSTGRDEQQRNSKAAHTSKPTIHLLSPIVNRDKPNNQTNDRGGNDPDSPTSQRRSRGLRSLLSSGKNTIFDSISKNLDDEINENAHIRNDTTSSKIAGKSPSRLSALQKSPELRKERNNMILKEHILRSKDDQNITSSRKLDNIELSSIGDSTAMTSRSSTVNANDILGNEENDGITKLKRVNKLTSSPVKRDCSTNKKRKLTKQRIATLPNSDEELSNNLNVDEFV
On to B1, for which the binding result in assay [1] is listed as “binds”.

B2: Heh1^GFP (protein, UniProt Q03707 1-834)
chain: MNSDLEYLEDGFDPNSMKVATLRRILVENNVDFPSNARKNALVGLFDEKVKPQIPQLRKMYLNVRPSDEGIVKMDRPSSSPSIASPRRSRRARREKSASPMAKQFKKNRILDDVSNDDDDDDDDDDDNDKKDDPLIVPSGTDTDEVDDEEDDVITSSSNKSDTNDFQQNSDTRKKRKDPDSDDWSESNSKENKIDNKHLNLLSSDSEIEQDYQKAKKRKTSDLNQEHGNGSAILGKLSVKTPIKNTNRKPVSMDNFNDSLTSSGTENDPFVPNIRHNPKELGTANGTGHSTPLSKLKVSASFADKLPQKEVPSTILVPEVEQQEPSQSERTPSLFSSEGSGSESEAPLLPEITTPGPHQPMGNTSNNVVEMIDTDSSNLVSDEDEVLVPTRIETPQLPTEKDVEKCEARVQELQEEVNEQLEHENGSEFDVKQGSGKVGNRHKFKRALKFLSKSLLALFLFCIFIVIPLLFGLWYREQRLLIGYCGHEVPSHRVSGNSFEFIQKLDNLLQDYRPKCIPCPPNGICYPYLKLKCKPDYKLAPSRLDFLEIIPAQGKCVKDDKKQQLVSEVVEKSLEFLRAKNAQISCGDGKDDIESGMTEDALYQIFNEARAPWIRDDEFEDLWIQVIKDLTEEPEILWRQLSPTDNNIGGNSNNIIKTNDVPRQKRHLPEKFISKTRNFRSTSKKYIGMKCRFEREIYQTYKKFQRPIWLMFLLIVISKVIEIKLKNYYRKKARIEELVTQTMEKLKFQKIKSMSDPKENAYLSIVQLRDIFLSDIVDLKYKNQLWSEVVKYLEHNNSNIKSNLTEIRGEIMKCWEWIGPMELNEPKDSAENKI
Turning to B2, in the assay with Lrs4^TAP (S. cerevisiae), the binding entry is “binds”.

B3: N-terminal GFP-Heh1 fusion, long splice variant (Heh1) (protein, UniProt Q03707 1-834)
chain: MNSDLEYLEDGFDPNSMKVATLRRILVENNVDFPSNARKNALVGLFDEKVKPQIPQLRKMYLNVRPSDEGIVKMDRPSSSPSIASPRRSRRARREKSASPMAKQFKKNRILDDVSNDDDDDDDDDDDNDKKDDPLIVPSGTDTDEVDDEEDDVITSSSNKSDTNDFQQNSDTRKKRKDPDSDDWSESNSKENKIDNKHLNLLSSDSEIEQDYQKAKKRKTSDLNQEHGNGSAILGKLSVKTPIKNTNRKPVSMDNFNDSLTSSGTENDPFVPNIRHNPKELGTANGTGHSTPLSKLKVSASFADKLPQKEVPSTILVPEVEQQEPSQSERTPSLFSSEGSGSESEAPLLPEITTPGPHQPMGNTSNNVVEMIDTDSSNLVSDEDEVLVPTRIETPQLPTEKDVEKCEARVQELQEEVNEQLEHENGSEFDVKQGSGKVGNRHKFKRALKFLSKSLLALFLFCIFIVIPLLFGLWYREQRLLIGYCGHEVPSHRVSGNSFEFIQKLDNLLQDYRPKCIPCPPNGICYPYLKLKCKPDYKLAPSRLDFLEIIPAQGKCVKDDKKQQLVSEVVEKSLEFLRAKNAQISCGDGKDDIESGMTEDALYQIFNEARAPWIRDDEFEDLWIQVIKDLTEEPEILWRQLSPTDNNIGGNSNNIIKTNDVPRQKRHLPEKFISKTRNFRSTSKKYIGMKCRFEREIYQTYKKFQRPIWLMFLLIVISKVIEIKLKNYYRKKARIEELVTQTMEKLKFQKIKSMSDPKENAYLSIVQLRDIFLSDIVDLKYKNQLWSEVVKYLEHNNSNIKSNLTEIRGEIMKCWEWIGPMELNEPKDSAENKI
As to B3, the binding result in assay [2] was “binds”.

B4: Nur1^3HA (HA-tagged Nur1 full-length) (protein, UniProt Q12066 1-484)
chain: MGSNDLINEAYDDSEVVGEERESKSAWMKRWYQLLTSPLDLQLVINEKLEMINWDAYAKSLAKPLGNFLTILFFIIRLLQDNLIKPNYYKLNVKSGAFDLSKSNKLKEFDYLWEISSSFQNNNQFYAFQSWYFVTLRFLNNLFRFTIFILLSLNLYVSCKFMFGYFKTYNLFHLKKEFNSPNLTKHNLKDLSKEYYEDIYKQSLWSMLKHFFRGSRDDGPHVNQNEDEIFFQLRKWIPTNFMINLFVSFSPTAIVFLSFSDVSFTSAIAIVFHQYILDYIITKRFQRSVDDDLILSSAALQEYEDKHIMARINQCSNIDTLSSAMGTRSKTPRIFTTHSLCGEEIREVYNYEKREFEALPKMTESVPGSRETRIKDYGGISQVSDHQSHPIGFHYSPRMSPYYRDKVLDNNLAQSSSNENLEKGGAYLPNQDQNRPSKSLSPLRKTPLSARQKRFEGSEFNVLNKNDINSILRSPKKKKNYHKR
For B4, the binding entry in the assay with Heh1^GFP (S. cerevisiae) is reported as “binds”.

B5: Nur1 lacking its last C-terminal residues (as in Supplementary Fig. 2e) (domain or fragment, UniProt Q12066 1-430)
chain: MGSNDLINEAYDDSEVVGEERESKSAWMKRWYQLLTSPLDLQLVINEKLEMINWDAYAKSLAKPLGNFLTILFFIIRLLQDNLIKPNYYKLNVKSGAFDLSKSNKLKEFDYLWEISSSFQNNNQFYAFQSWYFVTLRFLNNLFRFTIFILLSLNLYVSCKFMFGYFKTYNLFHLKKEFNSPNLTKHNLKDLSKEYYEDIYKQSLWSMLKHFFRGSRDDGPHVNQNEDEIFFQLRKWIPTNFMINLFVSFSPTAIVFLSFSDVSFTSAIAIVFHQYILDYIITKRFQRSVDDDLILSSAALQEYEDKHIMARINQCSNIDTLSSAMGTRSKTPRIFTTHSLCGEEIREVYNYEKREFEALPKMTESVPGSRETRIKDYGGISQVSDHQSHPIGFHYSPRMSPYYRDKVLDNNLAQSSSNENLEKGGAYLPN
As for B5, the binding entry in assay [3] is given as “binds”.
